Data as given in PubChem BioAssay AID1508597 (Cure First, 2020)

Assay: 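Survival screen with siRNA in ovarian cancer cells derived from patients, with or without rucaparib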 (primary screen)
Cells: human ovarian carcinoma lines grown from tumours: OCI-P5x (papillary serous) and OCI-C5x (clear cell)
Reagents: siRNA pool against human genes, 1.25 pmol siRNA per well
Time to read-out: 72 h or 96 h, depending on the cell culture
Challenge: rucaparib 20 µM (about IC30) or vehicle, present until read-out
Rucaparib or vehicle: Vehicle
Cell line: OCI-C5x (clear cell)
Read-out: 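Luminescent ATP-based viability assay read 72 or 96 h after transfection, depending on culture, given as normalised percent viability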
Reading the numbers: viability, normalised: higher = more viable cells remaining
Call rule: 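Active when normalised viability falls below 80 percent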
Meaning of the calls: active = viability under 80%; inactive = viability 80% or more
This is an unselected part of the about 2,100 reagents, in one setting of the screen. 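Calls flag viability under 80% in either arm, not effects specific to rucaparib; the reference for percent is not stated.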 Unmarked entries are inactive. Some reagents were tested in more than one well and are listed for each. Not stated in the record: the 100% reference.

| gene knocked down | technical replicate | viability, normalised (%) |
| --- | --- | --- |
| PIWIL2 | 1 | 35.1 (active) |
| PIWIL2 | 2 | 45.5 (active) |
| PIWIL2 | 3 | 54.3 (active) |
| EIF4A1 | 1 | 33.1 (active) |
| EIF4A1 | 2 | 39.7 (active) |
| EIF4A1 | 3 | 40.5 (active) |
| XRCC3 | 1 | 56 (active) |
| XRCC3 | 2 | 67.8 (active) |
| XRCC3 | 3 | 55.8 (active) |
| CDK20 | 1 | 45 (active) |
| CDK20 | 2 | 44.9 (active) |
| CDK20 | 3 | 42.5 (active) |
| TBL1XR1 | 1 | 44.8 (active) |
| TBL1XR1 | 1 | 58.8 (active) |
| TBL1XR1 | 2 | 37.2 (active) |
| TBL1XR1 | 2 | 63.3 (active) |
| TBL1XR1 | 3 | 36.6 (active) |
| TBL1XR1 | 3 | 47.4 (active) |
| RRP8 | 1 | 33.8 (active) |
| RRP8 | 2 | 40.1 (active) |
| RRP8 | 3 | 35.7 (active) |
| CCNE1 | 1 | 53.2 (active) |
| CCNE1 | 2 | 69.2 (active) |
| CCNE1 | 3 | 67.1 (active) |
